Test results as given in patent publication US20110014193A1 (JURIDICAL FDN THE CHEMO SERO THERAPEUTIC RES INST, published 2011).
Changes are numbered by the printed parent chain. Names may count otherwise. No constants are given. Whether binding was seen depends on the method and setting. Binding calls can cover weak binding; strength is not graded here.

By UniProt entry, the sequences of proteins in these tests, tags left out. Where a name states a change or a piece, a line headed by the entry shows the natural chain unless it says otherwise.
UniProt Q13797: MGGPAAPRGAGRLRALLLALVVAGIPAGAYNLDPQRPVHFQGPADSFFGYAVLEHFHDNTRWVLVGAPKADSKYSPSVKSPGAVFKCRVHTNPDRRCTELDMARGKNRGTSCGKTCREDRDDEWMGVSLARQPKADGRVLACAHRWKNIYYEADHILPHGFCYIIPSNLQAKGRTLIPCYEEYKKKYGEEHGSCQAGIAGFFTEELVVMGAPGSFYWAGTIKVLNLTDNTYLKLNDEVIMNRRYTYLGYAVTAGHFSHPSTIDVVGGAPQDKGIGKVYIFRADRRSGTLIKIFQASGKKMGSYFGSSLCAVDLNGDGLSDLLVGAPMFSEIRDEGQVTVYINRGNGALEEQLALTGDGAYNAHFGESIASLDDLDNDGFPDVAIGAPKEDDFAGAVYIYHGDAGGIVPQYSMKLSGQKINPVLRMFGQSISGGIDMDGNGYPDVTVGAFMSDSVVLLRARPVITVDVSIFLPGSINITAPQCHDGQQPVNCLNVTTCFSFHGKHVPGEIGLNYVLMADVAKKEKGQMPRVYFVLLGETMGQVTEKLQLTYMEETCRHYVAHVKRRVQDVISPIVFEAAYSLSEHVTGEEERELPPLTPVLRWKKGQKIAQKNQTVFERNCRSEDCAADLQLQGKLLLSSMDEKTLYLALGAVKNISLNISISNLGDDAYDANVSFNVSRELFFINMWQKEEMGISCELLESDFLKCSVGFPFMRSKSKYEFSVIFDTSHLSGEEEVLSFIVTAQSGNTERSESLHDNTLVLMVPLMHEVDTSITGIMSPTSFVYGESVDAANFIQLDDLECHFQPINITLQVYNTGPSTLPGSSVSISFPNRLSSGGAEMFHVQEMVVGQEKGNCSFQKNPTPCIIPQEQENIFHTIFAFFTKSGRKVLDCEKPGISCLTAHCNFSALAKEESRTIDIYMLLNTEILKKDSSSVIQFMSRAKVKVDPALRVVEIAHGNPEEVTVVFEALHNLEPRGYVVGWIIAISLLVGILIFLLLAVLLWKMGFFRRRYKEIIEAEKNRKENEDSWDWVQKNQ

B1: RY9A2v11(M34L)012 antibody (antibody, human IgG1, kappa, V domains shown)
VH: QVQLVQSGAEVKKPGSSVKMSCKASGYTLTTYWLHWVKQRPGQGLEWIGYINPSSGYTEYNQKFQGRVTITADKSTSTAYMELSSLRSEDTAVYYCAIYGDYGDFYFDYWGQGTTVTVSS
VL: DIQMTQSPSSLSASVGDRVTITCRASQSVNTDVAWYQQKPGKAPKLLIYFASNHYTGVPSRFSGSGSGTDFTFTISSLQPEDIATYYCRQDYSSPFTFGGGTKVEIKR
B2: RY9A2v5(IAW)01 antibody (antibody, human IgG1, kappa, V domains shown)
VH: B1 VH with L34I, Q65K, G66D, D104A, F105W
VL: B1 VL with R24K
B3: RY9A2v12(M34L)012 antibody (antibody, human IgG1, kappa, V domains shown)
VH: B1 VH with M20V, K38R, R40A, I48M
VL: B1 VL
B4: chimeric Y9A2 antibody (antibody, V domains shown)
VH: QVQLQQSGAELANPGASVKMSCKASGYTLTTYWMHWVKQRPGQGLEWIGYINPSSGYTEYNQKFKDKATLTADKSSSTAYMQLTSLTSEDSAVYYCAIYGDYGDFYFDYWGQGTTLTVSS
VL: SIVMTQTPKFLLVSAGDRVTMTCKASQSVNTDVAWFQQKPGQSPKLLIYFASNHYTGVPDRFTGSGYGTDFTFTISTVQAEDLAIYFCRQDYSSPFTFGGGTKLEIKR
B5: Y9A2 antibody Fab (Fab, V domains shown)
VH: B4 VH
VL: B4 VL
B6: RY9A2v11012 antibody (antibody, V domains shown)
VH: B1 VH with L34M
VL: B1 VL
B7: RY9A2v11011 antibody (antibody, V domains shown)
VH: B1 VH with L34M
VL: B1 VL with R24Q
B8: RY9A2v5(M34I)01 antibody (antibody, V domains shown)
VH: B1 VH with L34I, Q65K, G66D
VL: B1 VL with R24K
B9: RY9A2v5(M34L)01 antibody (antibody, V domains shown)
VH: B1 VH with Q65K, G66D
VL: B1 VL with R24K
B10: Y9A2 antibody Fab wherein the 104th and 105th amino acids were substituted by tryptophan and glutamic acid (Fab, V domains shown)
VH: B4 VH with D104W, F105E
VL: B4 VL
B11: Y9A2 antibody Fab wherein the 104th and 105th amino acids were substituted by alanine and leucine (Fab, V domains shown)
VH: B4 VH with D104A, F105L
VL: B4 VL
B12: Y9A2 antibody Fab wherein the 104th and 105th amino acids were substituted by alanine and tryptophan (Fab, V domains shown)
VH: B4 VH with D104A, F105W
VL: B4 VL
B13: Y9A2 antibody Fab wherein the 104th and 105th amino acids were substituted by serine and tryptophan (Fab, V domains shown)
VH: B4 VH with D104S, F105W
VL: B4 VL
B14: RY9A2v501 antibody (antibody, V domains shown)
VH: B1 VH with L34M, Q65K, G66D
VL: B1 VL with R24K
B15: RY9A2v801 antibody (antibody, V domains shown)
VH: B1 VH with M20V, L34M, K38R, R40A, I48M, Q65K, G66D
VL: B1 VL with R24K

Target: T1, human α9 integrin molecule (human, UniProt Q13797 30-1035; P05556 21-798)
Test: CELL ELISA on SW480/hα9 cells, as in Example 4

Row | binding | Binder
1 | binds | B1
2 | binds | B2
3 | binds | B3
4 | binds | B4

Target: T1, human α9 integrin molecule
Test: Cell ELISA on SW480/hα9 cells, comparison antibody

Row | binding | Binder
5 | binds | B4

Target: T1, human α9 integrin molecule
Test: Cell ELISA on SW480/hα9 cells, comparison control Fab

Row | binding | Binder
6 | binds | B5

Target: T1, human α9 integrin molecule
Test: Cell ELISA on SW480/hα9 cells, antibody in expression supernatant

Row | binding | Binder
7 | binds | B6
8 | binds | B7
9 | binds | B8
10 | binds | B9

Target: T1, human α9 integrin molecule
Test: Cell ELISA on SW480/hα9 cells, E. coli Fab expression supernatant

Row | binding | Binder
11 | binds | B10
12 | binds | B11
13 | binds | B12
14 | binds | B13

Target: T1, human α9 integrin molecule
Test: Cell ELISA on immobilized SW480 cells expressing human α9 integrin

Row | binding | Binder
15 | binds | B14
16 | binds | B15
17 | binds | B4

Target: T1, human α9 integrin molecule
Test: Cell ELISA on SW480/hα9 cells; antibody treated with 0.4% hydrogen peroxide (25° C., 4 hr) against untreated antibody

Row | binding | Binder
18 | binds | B14
19 | binds | B8
20 | binds | B9
21 | binds | B4
